Measurements reported in patent US20090104119A1, “Dendrimer Based Compositions And Methods Of Using The Same” (priority 2004, published 2009).
Some results were stated once for a whole list of compounds, not compound by compound.

Assays:
[1] = system: KB cells which express a high cell surface FA receptor (FAR); test: Cellular uptake/binding of dendrimers in high-FAR KB cells, flow cytometry; assay type: cell-based, human; settings: dose-dependent binding to KB cells, read-out: 50% binding
Description: Cell culture and treatment.
Flow Cytometry and Confocal Microscopy. The standard fluorescence of the dendrimer solutions was quantified using a Beckman spectrofluorimeter. For flow cytometric analysis of the uptake of the targeted polymer, cells were trypsinized and suspended in PBS containing 0.1% bovine serum albumin (PBSB) and analyzed using a Becton Dickinson FACScan analyzer. The FL1-fluorescence of 10,000 cells was measured and the mean fluorescence of gated viable cells was quantified. Confocal microscopic analysis was performed in cells plated on a glass cover-slip, using a Carl Ziess confocal microscope. Fluorescence and differential interference contrast (DIC) images were collected simultaneously using an argon laser, using the appropriate filters for FITC.
The cellular uptake of the dendrimers was measured in KB cells which express a high cell surface FA receptor (FAR). The FA-conjugated dendrimers bound to the cells in a dose-dependent fashion, with 50% binding at 10-15 nM for both the G5-FITC-FA and G5-FITC-FA-MTX, while the control dendrimer G5-FITC was not detected in the KB cells (See, e.g., FIG. 18A). Identical binding curves were obtained for the G5-FITC-FA and G5-FITC-FA-MTX when the fluorescence obtained was normalized for the quenching observed in the standard solutions of the dendrimers (See e.g., FIG. 18B). […]

s.c. human KB xenografts = test: Targeted drug delivery, tumor growth and survival in SCID mice with KB xenografts; assay type: in vivo, SCID CB-17 mice; settings: end-point volume of 4 cm3; second trial
Description: Recipient animal and tumor model.
Delivery of targeted nanoparticle therapeutic. Twice weekly, SCID mice with s.c. KB xenografts, starting on day 4 after tumor implantation, received via the tail vein an injection of either targeted or nontargeted conjugate containing methotrexate, a conjugate without methotrexate, free methotrexate, or saline as a control. The compounds were delivered in a 0.2 mL volume of saline per 20 g of mouse. The single dose of methotrexate delivered each time equaled 0.33 mg/kg. The higher doses of 1.67 and 3.33 mg/kg free methotrexate were also tested. The conjugates were delivered at equimolar concentration of methotrexate calculated based on the number of methotrexate molecules present in a nanoparticle. The conjugate without methotrexate was delivered at equimolar concentration of dendrimer. In the initial trial, six groups of mice with five mice in each group received up to 15 injections. In the follow-up trial, mice received up to 28 injections dependent on their survival. The body weights of the mice were monitored throughout the experiment as an indication of adverse effects of the drug. Histopathology of multiple organs was done at the termination of each trial and each time mouse had to be euthanized due to toxic effects or tumor burden. Tissues from lung, heart, liver, pancreas, spleen, kidney, and tumor were analyzed. […]

Substance | EC50 [1] [nM] | tumor growth delay (s.c. human KB xenografts)
G5-(Ac)82-(FITC)5-(FA)5-MTX5 [G5-FITC-FA-MTX] | 10 to 15 | at least 30 days
G5-(Ac)82-(FITC)5-(FA)5 [G5-FITC-FA] | 10 to 15 | –
